Measured values reported in publication doi:10.1101/2025.11.23.689998.

Protein sequences, listed by entry. Tags and fused reporters are not part of them.
UniProt P14713: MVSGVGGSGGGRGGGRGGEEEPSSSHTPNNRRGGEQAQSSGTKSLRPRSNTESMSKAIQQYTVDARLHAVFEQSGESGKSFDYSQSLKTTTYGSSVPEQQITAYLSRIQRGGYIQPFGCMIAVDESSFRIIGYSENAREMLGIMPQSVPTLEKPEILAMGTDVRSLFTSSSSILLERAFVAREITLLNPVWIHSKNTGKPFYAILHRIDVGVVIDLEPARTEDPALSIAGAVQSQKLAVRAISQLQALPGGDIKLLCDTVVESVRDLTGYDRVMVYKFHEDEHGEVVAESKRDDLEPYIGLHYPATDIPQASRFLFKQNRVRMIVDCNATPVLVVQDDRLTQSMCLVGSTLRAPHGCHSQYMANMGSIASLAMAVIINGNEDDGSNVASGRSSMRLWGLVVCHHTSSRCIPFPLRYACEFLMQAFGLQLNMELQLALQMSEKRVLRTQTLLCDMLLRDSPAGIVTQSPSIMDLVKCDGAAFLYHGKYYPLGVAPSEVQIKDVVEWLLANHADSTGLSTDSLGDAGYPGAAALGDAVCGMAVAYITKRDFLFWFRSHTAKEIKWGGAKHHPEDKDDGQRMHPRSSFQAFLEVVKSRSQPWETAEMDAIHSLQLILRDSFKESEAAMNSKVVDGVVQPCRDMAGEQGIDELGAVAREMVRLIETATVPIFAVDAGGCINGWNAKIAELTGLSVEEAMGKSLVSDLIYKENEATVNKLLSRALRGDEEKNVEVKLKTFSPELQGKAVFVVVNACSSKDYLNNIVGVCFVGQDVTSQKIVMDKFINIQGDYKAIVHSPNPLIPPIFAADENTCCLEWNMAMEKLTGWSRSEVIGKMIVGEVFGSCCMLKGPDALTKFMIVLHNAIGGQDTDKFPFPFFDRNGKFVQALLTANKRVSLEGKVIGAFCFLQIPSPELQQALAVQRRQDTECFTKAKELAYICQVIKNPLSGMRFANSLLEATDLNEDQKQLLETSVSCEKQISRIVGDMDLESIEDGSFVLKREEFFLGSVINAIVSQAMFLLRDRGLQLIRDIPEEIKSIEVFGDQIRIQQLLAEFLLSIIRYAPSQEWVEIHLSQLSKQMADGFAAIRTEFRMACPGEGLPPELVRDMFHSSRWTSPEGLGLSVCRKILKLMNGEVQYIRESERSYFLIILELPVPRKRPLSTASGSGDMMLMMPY
UniProt Q9FIJ0: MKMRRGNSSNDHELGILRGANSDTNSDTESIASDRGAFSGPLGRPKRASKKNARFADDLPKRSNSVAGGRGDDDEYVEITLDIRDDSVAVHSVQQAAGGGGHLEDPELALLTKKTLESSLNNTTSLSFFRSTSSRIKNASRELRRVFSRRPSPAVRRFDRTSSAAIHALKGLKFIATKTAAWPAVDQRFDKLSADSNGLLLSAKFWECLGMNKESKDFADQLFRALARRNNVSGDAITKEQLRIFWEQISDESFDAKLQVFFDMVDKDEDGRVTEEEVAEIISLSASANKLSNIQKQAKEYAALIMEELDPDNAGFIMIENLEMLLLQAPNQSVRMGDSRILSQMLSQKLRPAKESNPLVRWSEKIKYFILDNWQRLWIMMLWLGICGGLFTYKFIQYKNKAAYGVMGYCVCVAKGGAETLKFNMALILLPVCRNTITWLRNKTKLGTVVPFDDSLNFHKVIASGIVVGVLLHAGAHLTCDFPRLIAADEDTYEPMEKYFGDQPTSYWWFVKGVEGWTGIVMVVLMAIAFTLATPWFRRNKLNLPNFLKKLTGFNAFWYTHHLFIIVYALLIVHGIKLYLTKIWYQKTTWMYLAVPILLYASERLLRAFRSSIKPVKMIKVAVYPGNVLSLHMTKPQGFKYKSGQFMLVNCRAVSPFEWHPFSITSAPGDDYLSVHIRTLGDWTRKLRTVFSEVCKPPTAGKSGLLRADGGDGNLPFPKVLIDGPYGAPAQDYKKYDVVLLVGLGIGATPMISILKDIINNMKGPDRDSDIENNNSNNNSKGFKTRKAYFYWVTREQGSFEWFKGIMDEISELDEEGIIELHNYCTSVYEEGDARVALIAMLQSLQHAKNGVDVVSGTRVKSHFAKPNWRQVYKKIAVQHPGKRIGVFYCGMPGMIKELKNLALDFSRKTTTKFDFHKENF

B1: BRI1-ASSOCIATED RECEPTOR KINASE (receptor, UniProt Q94F62 26-615)
chain: NAEGDALSALKNSLADPNKVLQSWDATLVTPCTWFHVTCNSDNSVTRVDLGNANLSGQLVMQLGQLPNLQYLELYSNNITGTIPEQLGNLTELVSLDLYLNNLSGPIPSTLGRLKKLRFLRLNNNSLSGEIPRSLTAVLTLQVLDLSNNPLTGDIPVNGSFSLFTPISFANTKLTPLPASPPPPISPTPPSPAGSNRITGAIAGGVAAGAALLFAVPAIALAWWRRKKPQDHFFDVPAEEDPEVHLGQLKRFSLRELQVASDNFSNKNILGRGGFGKVYKGRLADGTLVAVKRLKEERTQGGELQFQTEVEMISMAVHRNLLRLRGFCMTPTERLLVYPYMANGSVASCLRERPESQPPLDWPKRQRIALGSARGLAYLHDHCDPKIIHRDVKAANILLDEEFEAVVGDFGLAKLMDYKDTHVTTAVRGTIGHIAPEYLSTGKSSEKTDVFGYGVMLLELITGQRAFDLARLANDDDVMLLDWVKGLLKEKKLEALVDVDLQGNYKDEEVEQLIQVALLCTQSSPMERPKMSEVVRMLEGDGLAERWEEWQKEEMFRQDFNYPTHHPAVSGWIIGDSTSQIENEYPSGPR
B2: MnSOD1 (enzyme, UniProt O81235 30-231)
chain: TFTLPDLPYDYGALEPAISGEIMQIHHQKHHQAYVTNYNNALEQLDQAVNKGDASTVVKLQSAIKFNGGGHVNHSIFWKNLAPSSEGGGEPPKGSLGSAIDAHFGSLEGLVKKMSAEGAAVQGSGWVWLGLDKELKKLVVDTTANQDPLVTKGGSLVPLVGIDVWEHAYYLQYKNVRPEYLKNVWKVINWKYASEVYEKENN
B3: SERINE/THREONINE-PROTEIN KINASE BSK4 (At1g01740) (enzyme, UniProt F4HU55 1-483)
chain: MGGQSSKIGTCCSHKTTALEAPDVENKENGEVNGVHSFREYSLEQLKIATSCFALENVVSEHGETAPNVVYQGKLENHMKIAIKRFSGTAWPDPRQFLEEARLVGQLRSKRMANLLGYCCEGGERLLVAEFMPNETLAKHLFHWDTEPMKWAMRLRVALYISEALEYCSNNGHTLYHDLNAYRVLFDEECNPRLSTFGLMKNSRDGKSYSTNLAFTPPEYLRTGRITAESVIYSFGTLLLDLLTGKHIPPSHALDLIRDRNLQTLTDSCLEGQFSDSDGTELVRLTSCCLQYEARERPNIKSLVTALISLQKDTEVLSHVLMGLPQSGTFASPPSPFAEACSGKDLTSMVEILEKIGYKDDEDLSFMWTEQMQEAINSKKKGDIAFRRKDFSEAIEFYTQFLDLGMISATVLVRRSQSYLMSNMAKEALDDAMKAQGISPVWYVALYLQSAALSVLGMEKESQIALTEGSILEARKISASTQN
B4: SERINE/THREONINE-PROTEIN PHOSPHATASE 2A (At3g25800) (protein, UniProt Q38950 1-587)
chain: MSMIDEPLYPIAVLIDELKNDDIQLRLNSIRRLSTIARALGEERTRKELIPFLSENNDDDDEVLLAMAEELGVFIPYVGGVEYAHVLLPPLETLSTVEETCVREKAVESLCRVGSQMRESDLVDHFISLVKRLAAGEWFTARVSACGVFHIAYPSAPDMLKTELRSLYTQLCQDDMPMVRRAAATNLGKFAATVESAHLKTDVMSMFEDLTQDDQDSVRLLAVEGCAALGKLLEPQDCVQHILPVIVNFSQDKSWRVRYMVANQLYELCEAVGPEPTRTELVPAYVRLLRDNEAEVRIAAAGKVTKFCRILNPEIAIQHILPCVKELSSDSSQHVRSALASVIMGMAPVLGKDATIEHLLPIFLSLLKDEFPDVRLNIISKLDQVNQVIGIDLLSQSLLPAIVELAEDRHWRVRLAIIEYIPLLASQLGVGFFDDKLGALCMQWLQDKVHSIRDAAANNLKRLAEEFGPEWAMQHIVPQVLEMVNNPHYLYRMTILRAVSLLAPVMGSEITCSKLLPVVMTASKDRVPNIKFNVAKVLQSLIPIVDQSVVEKTIRPGLVELSEDPDVDVRFFANQALQSIDNVMMSS
B5: protein involved in RBOHD recycling via clathrin mediated endocytosis (At5g46630) (protein, UniProt O23140 1-438)
chain: MPVAASAIYFLNLRGDVLINRTYRDDVGGNMVDAFRTHIMQTKELGNCPVRQIGGCSFVYMRISNVYIVIVVSSNANVACGFKFVVEAVALFKSYFGGAFDEDAIRNNFVLIYELLDEIMDFGYPQNLSPEILKLYITQEGVRSPFSSKPKDKPVPNATLQVTGAVGWRREGLAYKKNEVFLDIVESVNLLMSSKGNVLRCDVTGKVLMKCFLSGMPDLKLGLNDKIGLEKESEMKSRPAKSGKTIELDDVTFHQCVNLTRFNSEKTVSFVPPDGEFELMKYRITEGVNLPFRVLPTIKELGRTRMEVNVKVKSVFGAKMFALGVVVKIPVPKQTAKTNFQVTTGRAKYNPSIDCLVWKIRKFPGQTESTLSAEIELISTMGEKKSWTRPPIQMEFQVPMFTASGLRVRFLKVWEKSGYNTVEWVRYITKAGSYEIRC
B6: protein involved in RBOHD recycling via clathrin mediated endocytosis (At2g25430) (protein, UniProt Q8LF20 1-653)
chain: MAPSIRKAIGAVKDQTSIGIAKVASNMAPDLEVAIVKATSHDDDPASEKYIREILNLTSLSRGYILACVTSVSRRLSKTRDWVVALKALMLVHRLLNEGDPIFQEEILYSTRRGTRMLNMSDFRDEAHSSSWDHSAFVRTYAGYLDQRLELALFERKSGVSVNSGGNSSHHSNNDDRYGRGRDDFRSPPPRSYDYENGGGGGSDFRGDNNGYGGVPKRSRSYGDMTEMGGGGGGGGRDEKKVVTPLREMTPERIFGKMGHLQRLLDRFLSLRPTGLAKNSRMILIALYPVVRESFKLYADICEVLAVLLDKFFDMEYSDCVKAFDAYASAAKQIDELIAFYNWCKETGVARSSEYPEVQRITSKLLETLEEFVRDRAKRGKSPERKEIEAPPPVVEEEEPEPDMNEIKALPPPENYTPPPPPEPEPQPEKPQFTEDLVNLREDEVTADDQGNKFALALFAGPPGNNGKWEAFSSNGVTSAWQNPAAEPGKADWELALVETTSNLEKQTAALGGGFDNLLLNGMYDQGMVRQHVSTSQLTGGSASSVALPLPGKTNNQVLALPAPDGTVEKVNQDPFAASLTIPPPSYVQMAEMEKKQYLLSQEQQLWQQYQRDGMRGQASLAKMNTGPVPAYGMPPVNGMGPPPTGYYYNNPY
B7: protein involved in RBOHD recycling via clathrin mediated endocytosis (At2g40060) (protein, UniProt O04209 1-258)
chain: MSAFEDDSFVILNDDASESVPVSGSFDATDSFSAFDGSLQVEDSVDDVFAAPSSDYGAYSNGDGIFGSNGDHDGPILPPPSEMESDEGFALREWRRQNAIQLEEKEKREKELLKQIIEEADQYKEEFHKKIEVTCENNKAANREKEKLYLENQEKFYAESSKNYWKAIAELVPKEVPTIEKRRGKKEQQDPKKPTVSVIQGPKPGKPTDLTRMRQILVKLKHNPPSHLKLTSQPPSEEAAAPPKNVPETKPTEAVTAA
B8: CALCIUM-BINDING PROTEIN CML13 (protein, UniProt Q94AZ4 1-148)
chain: MGKDGLSDDQVSSMKEAFMLFDTDGDGKIAPSELGILMRSLGGNPTQAQLKSIIASENLSSPFDFNRFLDLMAKHLKTEPFDRQLRDAFKVLDKEGTGFVAVADLRHILTSIGEKLEPNEFDEWIKEVDVGSDGKIRYEDFIARMVAK
B9: WALL-ASSOCIATED RECEPTOR KINASE 2 (receptor, UniProt Q9LMP1 24-732)
chain: QPRKECQTRCGNVAVEYPFGTSPGCYYPGDESFNLTCNEQEKLFFGNMPVINMSLSGQLRVRLVRSRVCYDSQGKQTDYIAQRTTLGNFTLSELNRFTVVGCNSYAFLRTSGVEKYSTGCISICDSATTKNGSCSGEGCCQIPVPRGYSFVRVKPHSFHNHPTVHLFNPCTYAFLVEDGMFDFHALEDLNNLRNVTTFPVVLDWSIGDKTCKQVEYRGVCGGNSTCFDSTGGTGYNCKCLEGFEGNPYLPNGCQDINECISSRHNCSEHSTCENTKGSFNCNCPSGYRKDSLNSCTRKVRPEYFRWTQIFLGTTIGFSVIMLGISCLQQKIKHRKNTELRQKFFEQNGGGMLIQRVSGAGPSNVDVKIFTEKGMKEATNGYHESRILGQGGQGTVYKGILPDNSIVAIKKARLGNRSQVEQFINEVLVLSQINHRNVVKVLGCCLETEVPLLVYEFINSGTLFDHLHGSLYDSSLTWEHRLRIATEVAGSLAYLHSSASIPIIHRDIKTANILLDKNLTAKVADFGASRLIPMDKEQLTTIVQGTLGYLDPEYYNTGLLNEKSDVYSFGVVLMELLSGQKALCFERPHCPKNLVSCFASATKNNRFHEIIDGQVMNEDNQREIQEAARIAAECTRLMGEERPRMKEVAAELEALRVKTTKYKWSDQYRETGEIEHLLGVQILSAQGETSSSIGYDSIRNVTTLDIEAGR
B10: WALL-ASSOCIATED RECEPTOR KINASE 8 (receptor, UniProt Q9SA25 24-720)
chain: STFPLALRNCSDHCGNVSVPYPFGIGKGCYKNKWFEIVCKSSSDQQPILLLPRIRRAVTSFNLGDPFSISVYNKFYIQSPLKHSGCPNRDGYSSSSLNLKGSPFFISENNKFTAVGCNNKAFMNVTGLQIVGCETTCGNEIRSYKGANTSCVGYKCCQMTIPPLLQLQVFDATVEKLEPNKQGCQVAFLTQFTLSGSLFTPPELMEYSEYTTIELEWRLDLSYMTSKRVLCKGNTFFEDSYQCSCHNGYEGNPYIPGGCQDIDECRDPHLNKCGKRKCVNVLGSYRCEKTWPAILSGTLSSGLLLLIFGMWLLCKANRKRKVAKQKRKFFQRNGGLLLQQQTSFLHGSVNRTKVFSSNDLENATDRFNASRILGQGGQGTVYKGMLEDGMIVAVKKSKALKEENLEEFINEIILLSQINHRNVVKILGCCLETEVPILVYEFIPNRNLFDHLHNPSEDFPMSWEVRLCIACEVADALSYLHSAVSIPIYHRDVKSTNILLDEKHRAKVSDFGISRSVAIDDTHLTTIVQGTIGYVDPEYLQSNHFTGKSDVYSFGVLLIELLTGEKPVSLLRRQEVRMLGAYFLEAMRNDRLHEILDARIKEECDREEVLAVAKLARRCLSLNSEHRPTMRDVFIELDRMQSKRKGTQSQAQNGEEHAHIQIAMPESMSLSYSSPNIVVENSSFSLDTKPLMPHKTQ

These binders were tested against phyB-miniTurbo (phyB CDS - miniTurbo-sCFP3A-3FLAG) (Arabidopsis thaliana) (UniProt P14713) (assay: proximity labelling).

Which binding does the source give for B1 here?
Its binding is “binds”.

For B2, which binding is on record?
Its binding is “binds”.

The binders below were run against HA-tagged RBOHD (RESPIRATORY BURST OXIDASE PROTEIN D) (Arabidopsis thaliana) (UniProt Q9FIJ0) (assay: affinity purification with mass spectrometry).

For B3, which binding is on record?
Its binding is “binds”.

How did the binding turn out when B4 was run?
Its binding is “binds”.

For B5, which binding is on record?
Its binding is “binds”.

With B6 as the binder, how does the binding read?
Its binding is “binds”.

For B7, which binding is on record?
Its binding is “binds”.

Which binding does the source give for B8 here?
The binding was “binds”.

Which binding does the source give for B9 here?
Its binding is “binds”.

How did the binding turn out when B10 was run?
The binding was “binds”.

These are yes or no findings as the source states them, for the method shown. In cells and extracts the contact can be indirect. A yes stands for co-enrichment or nearness to the bait. Other partners may have been found.
